Laboratory results reported in patent US12070509B2, “Nucleic acids and methods of treatment for cystic fibrosis” (Arcturus Therapeutics, Inc., priority 2020, dated 2024).
For at least one compound, name, drawing or mass did not settle the structure.

Sequences of proteins named here, by UniProt entry; tags and fusion partners are left off.
UniProt P13569, whole entry: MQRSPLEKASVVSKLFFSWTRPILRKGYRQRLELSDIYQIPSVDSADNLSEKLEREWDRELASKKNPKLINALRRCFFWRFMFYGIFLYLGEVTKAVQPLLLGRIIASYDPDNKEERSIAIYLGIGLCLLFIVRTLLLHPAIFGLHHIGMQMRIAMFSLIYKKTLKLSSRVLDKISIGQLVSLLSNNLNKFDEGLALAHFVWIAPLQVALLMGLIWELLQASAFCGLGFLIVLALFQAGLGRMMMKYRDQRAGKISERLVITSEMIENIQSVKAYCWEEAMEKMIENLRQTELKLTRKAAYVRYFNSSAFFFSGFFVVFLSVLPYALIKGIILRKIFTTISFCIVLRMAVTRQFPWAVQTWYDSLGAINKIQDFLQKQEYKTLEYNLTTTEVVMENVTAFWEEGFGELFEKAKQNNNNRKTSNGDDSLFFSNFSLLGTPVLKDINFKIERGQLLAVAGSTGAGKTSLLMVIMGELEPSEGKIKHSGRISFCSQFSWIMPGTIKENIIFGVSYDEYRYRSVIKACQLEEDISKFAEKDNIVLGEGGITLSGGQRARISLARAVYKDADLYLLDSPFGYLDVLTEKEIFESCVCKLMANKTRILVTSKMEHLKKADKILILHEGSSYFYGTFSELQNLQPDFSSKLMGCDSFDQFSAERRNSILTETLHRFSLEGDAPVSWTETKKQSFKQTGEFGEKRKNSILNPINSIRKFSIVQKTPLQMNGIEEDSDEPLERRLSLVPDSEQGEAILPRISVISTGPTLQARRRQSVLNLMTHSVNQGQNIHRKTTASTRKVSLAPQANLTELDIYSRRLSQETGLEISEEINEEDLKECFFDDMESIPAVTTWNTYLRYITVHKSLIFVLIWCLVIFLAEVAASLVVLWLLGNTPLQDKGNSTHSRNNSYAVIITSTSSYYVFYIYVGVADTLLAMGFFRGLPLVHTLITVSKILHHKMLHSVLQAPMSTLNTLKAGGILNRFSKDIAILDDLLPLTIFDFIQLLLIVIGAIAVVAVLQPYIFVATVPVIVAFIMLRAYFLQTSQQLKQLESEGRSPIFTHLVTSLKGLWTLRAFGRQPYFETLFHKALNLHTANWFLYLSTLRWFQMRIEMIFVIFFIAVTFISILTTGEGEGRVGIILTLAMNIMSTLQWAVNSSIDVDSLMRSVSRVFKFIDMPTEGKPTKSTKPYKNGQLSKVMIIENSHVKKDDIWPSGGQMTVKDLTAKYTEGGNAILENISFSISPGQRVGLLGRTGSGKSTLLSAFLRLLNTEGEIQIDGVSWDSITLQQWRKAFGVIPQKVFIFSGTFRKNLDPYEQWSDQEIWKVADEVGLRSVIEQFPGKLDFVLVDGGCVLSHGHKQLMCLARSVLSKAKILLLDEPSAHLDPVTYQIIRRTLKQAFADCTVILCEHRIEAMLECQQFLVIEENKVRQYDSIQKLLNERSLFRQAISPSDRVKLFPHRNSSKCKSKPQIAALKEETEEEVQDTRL

Molecular target: T1, CFTR channels (Homo sapiens, UniProt P13569)
T1 construct: 1835; Cap1; TEV; Yes; XBG; 53; expressed in transfected cells; host or cells: FRT (Fischer rat thyroid) cells in air-liquid interface culture, transfected with unformulated hCFTR mRNA
Assay: Transepithelial conductance (Gt) in Air-Liquid Interface culture of transfected FRT cells
Type: cell-based
Settings: FRT cells transfected with constructs 2099.1 and 1835.1 (FIG. 12); sequential Forskolin, VX770, Inh-172
Method: Further studies were conducted to assess the activity of hCFTR proteins expressed by selected mRNA constructs and whether these can properly open and close to allow proper ion transport. In these studies, an Air-Liquid Interface (ALI) cell culture model of FRT cells was used to transfect an unformulated subset of codon-optimized hCFTR mRNAs at different doses ranging from 0.5 μg-2 μg of mRNA (the 2 μg dose is not shown) into the FRT cells. ALI is a method of cell culture by which polarized cells are generated with their basal surfaces in contact with media, and the top of the cellular layer is exposed to the air. This model helps to mimic the cellular structure of in vivo airways.
At 24 hours post-transfection, transepithelial conductance (Gt) of the cells over time was measured as an indicator of CFTR activity. Initially, Gt was measured with the transfected or control cells unperturbed. Then, a sequential process of CFTR activation (channel opening), enhancement (gating promotion) and closing of the CFTR channels was performed. The hCFTR constructs used in this study were 1835.1 (SEQ ID NO: 53), 2093.1 (SEQ ID NO: 66), 2095.1 (SEQ ID NO: 68), 2096.1 (SEQ ID NO: 69), and 2099.1 (SEQ ID NO: 72). In addition, controls were performed using a reference sequence of construct 764.1 (SEQ ID NO: 47) and untransfected cells. […]

C=C[C@@]1(C)CC(=O)[C@]2(O)[C@@]3(C)[C@@H](O)CCC(C)(C)[C@@H]3[C@H](O)[C@H](OC(C)=O)[C@@]2(C)O1 [Forskolin, reference compound]
Change in Gt on introduction of CFTR modulator: initial increase in Gt
